For at least one compound, name, drawing or mass did not settle the structure.
Legend:
[1] = target: target sequence AGTACT (310 bp fragment, Plasmid B); test: Quantitative DNase I footprint titration; format: binding; conditions: 310 bp B, 22° C., pH 7.0, read-out: Dissociation Constant Kd
Text: (§1) Compounds (1) through (20) according to this invention were screened for their ability to bind to specified DNA target sequences, using DNase I footprinting. Generally, the procedure described in Dervan, WO 98/50582 (1998), was followed.
(§2) Three double stranded circular plasmids A, B, and C were used to prepare double stranded DNA-binding probes containing the target sequences for the DNase I footprint titration experiments. Plasmids A, B, and C had nucleotide sequences given by SEQ ID NO. I, SEQ ID NO. II, and SEQ ID NO. III, respectively.
(§3) The 3′-P32 end-labeled EcoRI/PvuII fragments from each plasmid were prepared by digesting the plasmids with EcoRI and PvuII with simultaneous fill-in using Sequenase v. 2.0, [alpha-P32]-deoxyadenosine-5′-triphosphate, and [alpha-P32]-thymidine-5′-triphosphate, and isolating the cloned fragments by nondenaturing gel electrophoresis. A and G sequencing reactions were carried out as described (See Maxam and Gilbert, Methods Enzymol., 1980, 65, 499-560; Iverson and Dervan, Methods Enzymol., 1987, 15, 7823-7830; Sambrook et al., 1989, Molecular Cloning, 2nd ed., Cold Spring Harbor Laboratory Press: Cold Spring Harbor, N.Y.) Standard methods were used for all DNA manipulations (Sambrook et al., ibid.) The cut sites for EcoRI and PvuII are indicated by bars in the respective maps of Plasmids A, B, and C in FIGS. 5, 6, and 7.
(§4) The 351 base pair dsDNA restriction fragment (SEQ ID NO. IV) of Plasmid A contained the target sequences AAAAAGCAAAAA, AAAAAGACAAAAA, and AAAAAGTACAAAAA. The 310 base pair dsDNA restriction fragment (SEQ ID NO. V) of Plasmid B contained the target sequences AGTACT, AATACT, and ATTACT. The 352 base pair dsDNA restriction fragment (SEQ ID NO. VI) of Plasmid C contained the target sequences TGACAATTAAT, GACAATTAATCA, AATTAATCAT, ACAATTA, and ACAATTAAT. These fragments were used for quantitative DNase I footprinting experiments. Compounds used in the method of this invention bind to at least one of the target sites with a equal to or less than 100 nM, preferably equal to or less than 50 nM, and more preferably equal to or less than 20 nM. The target sequences were selected for the identity with, or similarity to, promoter sites for bacterial genes.
(§5) Quantitative DNase I footprint titration experiments were carried out as described previously (Dervan, WO 98/50582, 1998) with the following changes. All reactions were carried out in a total volume of 400 μL, with compound stock solution or water added to 15,000 cpm radiolabeled restriction fragment affording final solution conditions of 10 mM Tris HCl, 10 mM KCl, 10 mM MgCl2, 5 mM CaCl2, pH 7.0 and 0.01 nM, 0.1 nM, 1.0 nM, 10.0 nM compound or no compound for reference lanes. The compounds were allowed to equilbrate at 22° C. for 16 h. Footprinting reactions were initiated with addition of 10 μL of a DNase I stock solution (at the appropriate concentration to give ˜50% intact DNA) containing 1 mM DTT and allowed to proceed for 7 min at 22° C. The reactions were stopped, ethanol precipitated, resuspended in loading buffer, heat denatured, and placed on ice as described previously (Dervan WO 98/50582, 1998). The reaction products were separated on a precast 8% polyacrylamide denaturing sequencing Castaway gel with 32 preformed wells from Stratagene in 1×TBE at 2000 V. Gels were dried according to the manufacturer and exposed to a storage phosphor screen (Molecular Dynamics). Quantitation and data analysis were carried out as described in Dervan, WO 98/50582, 1998.

[2] = target: target sequence ATTACT (310 bp fragment, Plasmid B); test: Quantitative DNase I footprint titration; format: binding; conditions: 310 bp B, 22° C., pH 7.0, read-out: Dissociation Constant Kd
Text: as §1, §2, §3, §4, §5

| SMILES | Kd [1] | Kd [2] |
| --- | --- | --- |
| Cn1cc(NC(=O)c2cc(NC(=O)c3cc(NC(=O)c4cc5ccccc5cn4)cn3C)cn2C)cc1C(=O)NCCc1cccnc1 [Compound 14] | 50 nM | – |
| Cn1cc(NC(=O)c2cc(NC(=O)c3cc(NC(=O)c4ccc(F)cc4F)cn3C)cn2C)cc1C(=O)NCCN1CCCCCC1 [Compound 15] | 50 nM | – |
| Cn1cc(NC(=O)c2sc3ccccc3c2Cl)cc1C(=O)Nc1cc(C(=O)NCCN2CCCCC2)n(CCN2CCOCC2)c1 [Compound 16] | – | 50 nM |
| Cn1cc(NC(=O)c2sc3ccccc3c2Cl)cc1-c1nc2ccc(C(=O)NCCN3CCCCC3)cc2[nH]1 [Compound 18] | – | 50 nM |
| Cn1cc(NC(=O)c2cc3ccccc3cn2)cc1C(=O)Nc1cc(C(=O)Nc2cc(C(=O)NCCN3CCCCC3)ns2)n(C)c1 [Compound 19] | 50 nM | – |
